No constants are given. Whether binding was seen depends on the method and setting. In cells and extracts the contact can be indirect. Some binding calls cover weakened binding; strength is not graded here.

Sequences of proteins named here, by UniProt entry; tags and fusion partners are left off.
UniProt Q14157: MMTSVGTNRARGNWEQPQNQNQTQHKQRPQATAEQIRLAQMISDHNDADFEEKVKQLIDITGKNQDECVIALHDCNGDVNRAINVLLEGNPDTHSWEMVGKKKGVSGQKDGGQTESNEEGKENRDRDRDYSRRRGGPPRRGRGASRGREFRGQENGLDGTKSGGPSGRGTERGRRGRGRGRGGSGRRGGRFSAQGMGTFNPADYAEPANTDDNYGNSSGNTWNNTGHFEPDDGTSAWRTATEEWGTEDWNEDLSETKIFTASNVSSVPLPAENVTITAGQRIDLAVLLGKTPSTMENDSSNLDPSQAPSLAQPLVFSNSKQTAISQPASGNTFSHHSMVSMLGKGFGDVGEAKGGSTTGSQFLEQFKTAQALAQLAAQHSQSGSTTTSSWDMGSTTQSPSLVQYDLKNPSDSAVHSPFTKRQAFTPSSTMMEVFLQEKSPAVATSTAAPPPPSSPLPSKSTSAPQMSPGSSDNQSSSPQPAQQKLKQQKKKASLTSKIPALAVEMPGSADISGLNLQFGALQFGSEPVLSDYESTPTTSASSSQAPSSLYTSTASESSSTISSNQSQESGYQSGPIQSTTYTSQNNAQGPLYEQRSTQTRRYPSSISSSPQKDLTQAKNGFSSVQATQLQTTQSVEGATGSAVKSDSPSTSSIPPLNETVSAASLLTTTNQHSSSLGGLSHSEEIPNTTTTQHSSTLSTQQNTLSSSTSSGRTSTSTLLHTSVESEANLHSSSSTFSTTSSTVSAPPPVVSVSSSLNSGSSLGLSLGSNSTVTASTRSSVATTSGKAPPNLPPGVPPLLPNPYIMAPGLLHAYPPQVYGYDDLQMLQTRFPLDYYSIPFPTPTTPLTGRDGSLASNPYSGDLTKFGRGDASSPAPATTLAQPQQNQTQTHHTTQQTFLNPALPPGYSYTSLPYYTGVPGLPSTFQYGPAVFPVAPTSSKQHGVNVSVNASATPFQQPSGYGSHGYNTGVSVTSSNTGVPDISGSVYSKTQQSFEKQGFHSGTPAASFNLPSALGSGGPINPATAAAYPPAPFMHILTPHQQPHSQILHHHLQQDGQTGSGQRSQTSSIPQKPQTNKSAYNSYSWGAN
UniProt Q96GD4: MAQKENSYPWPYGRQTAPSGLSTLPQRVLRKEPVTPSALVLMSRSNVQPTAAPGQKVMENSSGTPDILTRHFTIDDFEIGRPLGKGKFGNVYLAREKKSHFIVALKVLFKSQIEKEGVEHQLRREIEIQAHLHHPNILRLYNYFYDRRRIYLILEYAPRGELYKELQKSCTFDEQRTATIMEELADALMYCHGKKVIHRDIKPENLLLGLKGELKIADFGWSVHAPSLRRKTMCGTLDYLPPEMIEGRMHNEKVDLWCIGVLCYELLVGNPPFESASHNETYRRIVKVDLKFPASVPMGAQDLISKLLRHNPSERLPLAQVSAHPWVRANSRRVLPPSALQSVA
UniProt P53350: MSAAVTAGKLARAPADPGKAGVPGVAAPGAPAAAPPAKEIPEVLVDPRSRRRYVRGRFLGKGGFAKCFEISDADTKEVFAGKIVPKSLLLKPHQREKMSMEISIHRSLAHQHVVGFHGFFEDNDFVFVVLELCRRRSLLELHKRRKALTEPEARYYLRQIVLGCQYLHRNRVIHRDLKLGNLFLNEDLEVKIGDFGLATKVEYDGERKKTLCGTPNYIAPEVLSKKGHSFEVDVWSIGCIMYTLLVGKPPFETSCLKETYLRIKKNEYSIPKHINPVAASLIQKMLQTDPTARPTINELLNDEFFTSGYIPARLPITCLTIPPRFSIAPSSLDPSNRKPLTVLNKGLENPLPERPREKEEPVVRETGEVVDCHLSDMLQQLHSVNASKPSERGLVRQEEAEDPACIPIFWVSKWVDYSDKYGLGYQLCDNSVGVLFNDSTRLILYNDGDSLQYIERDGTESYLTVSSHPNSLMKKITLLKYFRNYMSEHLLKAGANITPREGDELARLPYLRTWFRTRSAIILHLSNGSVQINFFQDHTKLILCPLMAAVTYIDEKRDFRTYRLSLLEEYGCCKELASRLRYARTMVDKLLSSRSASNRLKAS

The results in this text go back to paper doi:10.1101/2022.10.24.513562.

The assay deals with Ubiquitin-Binding Protein 2-Like (UBAP2L) (human (endogenous in HeLa)) (UniProt Q14157). The assay is described as follows: co-IP.

For the molecule “Aurora B (AurB) (from UniProt Q96GD4 1-344)”, the binding entry was “no binding”.

Regarding “Polo-like kinase 1 (PLK1) (from UniProt P53350 1-603)”, the binding result was “binds”.

B1: Kelch-like protein 22 (KLHL22) (protein, UniProt Q53GT1 1-634)
chain: MAEEQEFTQLCKLPAQPSHPHCVNNTYRSAQHSQALLRGLLALRDSGILFDVVLVVEGRHIEAHRILLAASCDYFRGMFAGGLKEMEQEEVLIHGVSYNAMCQILHFIYTSELELSLSNVQETLVAACQLQIPEIIHFCCDFLMSWVDEENILDVYRLAELFDLSRLTEQLDTYILKNFVAFSRTDKYRQLPLEKVYSLLSSNRLEVSCETEVYEGALLYHYSLEQVQADQISLHEPPKLLETVRFPLMEAEVLQRLHDKLDPSPLRDTVASALMYHRNESLQPSLQSPQTELRSDFQCVVGFGGIHSTPSTVLSDQAKYLNPLLGEWKHFTASLAPRMSNQGIAVLNNFVYLIGGDNNVQGFRAESRCWRYDPRHNRWFQIQSLQQEHADLSVCVVGRYIYAVAGRDYHNDLNAVERYDPATNSWAYVAPLKREVYAHAGATLEGKMYITCGRRGEDYLKETHCYDPGSNTWHTLADGPVRRAWHGMATLLNKLYVIGGSNNDAGYRRDVHQVACYSCTSGQWSSVCPLPAGHGEPGIAVLDNRIYVLGGRSHNRGSRTGYVHIYDVEKDCWEEGPQLDNSISGLAACVLTLPRSLLLEPPRGTPDRSQADPDFASEVMSVSDWEEFDNSSED
Take B1: the binding result is reported as “binds”.
